From paper PMC8452729
No constants are given. Whether binding was seen depends on the method and setting. Binding seen in cells or lysates may run through a third protein. Some entries that bind do so weakly or less than the wild type.

Sequences of proteins named here, by UniProt entry; tags and fusion partners are left off. A change or cut given only in a name is not applied to a line headed by its entry. A line that says so, or that is headed by a name, gives the form on record, which may keep a tag or linker.
AR-V7 (androgen receptor splice variant 7) (human (endogenous in C4-2EnzR)) (P10275, form named): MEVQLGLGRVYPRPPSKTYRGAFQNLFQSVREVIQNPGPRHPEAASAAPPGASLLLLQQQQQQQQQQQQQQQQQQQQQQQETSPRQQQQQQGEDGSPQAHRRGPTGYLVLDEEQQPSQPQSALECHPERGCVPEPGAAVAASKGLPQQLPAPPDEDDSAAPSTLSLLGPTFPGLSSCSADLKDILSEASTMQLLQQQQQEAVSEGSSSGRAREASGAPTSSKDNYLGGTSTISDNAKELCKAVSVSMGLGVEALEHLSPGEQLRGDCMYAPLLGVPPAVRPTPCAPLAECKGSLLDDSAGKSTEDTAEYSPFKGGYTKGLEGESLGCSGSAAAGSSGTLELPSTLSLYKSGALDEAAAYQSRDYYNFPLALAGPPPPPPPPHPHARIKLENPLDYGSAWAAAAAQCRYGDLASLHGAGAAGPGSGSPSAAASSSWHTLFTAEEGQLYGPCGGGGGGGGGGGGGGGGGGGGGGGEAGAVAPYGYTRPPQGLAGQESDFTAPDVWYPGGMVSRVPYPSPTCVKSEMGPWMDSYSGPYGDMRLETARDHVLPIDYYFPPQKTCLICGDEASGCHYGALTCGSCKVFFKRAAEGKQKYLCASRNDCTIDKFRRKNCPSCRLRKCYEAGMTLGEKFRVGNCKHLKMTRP

Target: AR-V7 (androgen receptor splice variant 7) (human (endogenous in C4-2EnzR)) (UniProt P10275)
Assay: co-IP; endogenous proteins in cell lysates (LNCaP-AI, C4-2; C4-2EnzR for Fig. 5F); AR IP antibody and USP22 WB antibody (Fig. 3I); Thermo Pierce Classic Magnetic IP/Co-IP Kit, western blot detection; cells with or without PCBP1-AS1 knock-down or rescue

binding: binds
B1: USP22 (enzyme, UniProt Q9UPT9 1-525)
chain: MVSRPEPEGEAMDAELAVAPPGCSHLGSFKVDNWKQNLRAIYQCFVWSGTAEARKRKAKSCICHVCGVHLNRLHSCLYCVFFGCFTKKHIHEHAKAKRHNLAIDLMYGGIYCFLCQDYIYDKDMEIIAKEEQRKAWKMQGVGEKFSTWEPTKRELELLKHNPKRRKITSNCTIGLRGLINLGNTCFMNCIVQALTHTPLLRDFFLSDRHRCEMQSPSSCLVCEMSSLFQEFYSGHRSPHIPYKLLHLVWTHARHLAGYEQQDAHEFLIAALDVLHRHCKGDDNGKKANNPNHCNCIIDQIFTGGLQSDVTCQVCHGVSTTIDPFWDISLDLPGSSTPFWPLSPGSEGNVVNGESHVSGTTTLTDCLRRFTRPEHLGSSAKIKCSGCHSYQESTKQLTMKKLPIVACFHLKRFEHSAKLRRKITTYVSFPLELDMTPFMASSKESRMNGQYQQPTDSLNNDNKYSLFAVVNHQGTLESGHYTSFIRQHKDQWFKCDDAIITKASIKDVLDSEGYLLFYHKQFLEYE
